Here are results for 33 targets from the supplement of paper PMC10849652.

Sequences of proteins named here, by UniProt entry; tags and fusion partners are left off. A change or cut given only in a name is not applied to a line headed by its entry.
UniProt Q7Z6M1: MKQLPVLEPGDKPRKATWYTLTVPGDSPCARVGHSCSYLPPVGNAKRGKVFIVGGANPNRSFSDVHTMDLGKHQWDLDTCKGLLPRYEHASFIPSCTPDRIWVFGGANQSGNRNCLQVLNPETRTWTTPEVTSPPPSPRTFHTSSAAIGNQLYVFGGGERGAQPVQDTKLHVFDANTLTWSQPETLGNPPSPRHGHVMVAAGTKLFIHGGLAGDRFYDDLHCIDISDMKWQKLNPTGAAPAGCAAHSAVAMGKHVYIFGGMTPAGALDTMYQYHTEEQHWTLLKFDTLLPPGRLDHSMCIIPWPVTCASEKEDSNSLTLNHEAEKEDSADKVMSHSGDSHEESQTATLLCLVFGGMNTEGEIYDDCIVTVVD
UniProt O43502: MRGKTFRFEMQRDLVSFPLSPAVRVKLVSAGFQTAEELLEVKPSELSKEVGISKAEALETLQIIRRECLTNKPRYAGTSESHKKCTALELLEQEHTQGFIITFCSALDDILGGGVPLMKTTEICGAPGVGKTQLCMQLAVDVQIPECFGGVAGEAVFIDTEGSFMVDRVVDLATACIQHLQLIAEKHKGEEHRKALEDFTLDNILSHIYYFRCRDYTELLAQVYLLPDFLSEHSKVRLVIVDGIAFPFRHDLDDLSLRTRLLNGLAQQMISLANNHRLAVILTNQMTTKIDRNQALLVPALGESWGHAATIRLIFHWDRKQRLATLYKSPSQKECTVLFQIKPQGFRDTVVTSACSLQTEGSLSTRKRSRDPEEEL
UniProt Q15276: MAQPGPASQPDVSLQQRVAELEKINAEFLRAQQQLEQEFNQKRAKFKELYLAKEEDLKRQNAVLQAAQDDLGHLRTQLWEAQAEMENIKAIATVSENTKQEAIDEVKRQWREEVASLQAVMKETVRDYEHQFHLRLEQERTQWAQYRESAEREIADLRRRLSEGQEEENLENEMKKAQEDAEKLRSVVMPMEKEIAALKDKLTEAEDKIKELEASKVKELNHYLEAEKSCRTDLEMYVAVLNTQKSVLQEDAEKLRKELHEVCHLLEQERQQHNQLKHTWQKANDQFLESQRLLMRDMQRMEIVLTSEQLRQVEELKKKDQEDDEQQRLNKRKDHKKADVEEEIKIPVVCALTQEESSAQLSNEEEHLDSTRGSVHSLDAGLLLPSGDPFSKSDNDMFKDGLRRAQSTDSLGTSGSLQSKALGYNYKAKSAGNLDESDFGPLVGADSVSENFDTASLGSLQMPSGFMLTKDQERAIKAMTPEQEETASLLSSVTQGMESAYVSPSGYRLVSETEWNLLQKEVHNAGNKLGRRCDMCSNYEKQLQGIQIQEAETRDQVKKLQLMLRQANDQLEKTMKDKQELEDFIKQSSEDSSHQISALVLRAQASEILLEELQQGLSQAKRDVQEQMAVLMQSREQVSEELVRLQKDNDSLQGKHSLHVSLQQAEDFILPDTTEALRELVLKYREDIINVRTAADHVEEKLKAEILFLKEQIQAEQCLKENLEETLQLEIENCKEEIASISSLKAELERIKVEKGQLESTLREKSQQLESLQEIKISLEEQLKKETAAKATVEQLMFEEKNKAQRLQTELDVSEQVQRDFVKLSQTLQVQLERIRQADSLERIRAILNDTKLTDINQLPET
UniProt Q6GYQ0: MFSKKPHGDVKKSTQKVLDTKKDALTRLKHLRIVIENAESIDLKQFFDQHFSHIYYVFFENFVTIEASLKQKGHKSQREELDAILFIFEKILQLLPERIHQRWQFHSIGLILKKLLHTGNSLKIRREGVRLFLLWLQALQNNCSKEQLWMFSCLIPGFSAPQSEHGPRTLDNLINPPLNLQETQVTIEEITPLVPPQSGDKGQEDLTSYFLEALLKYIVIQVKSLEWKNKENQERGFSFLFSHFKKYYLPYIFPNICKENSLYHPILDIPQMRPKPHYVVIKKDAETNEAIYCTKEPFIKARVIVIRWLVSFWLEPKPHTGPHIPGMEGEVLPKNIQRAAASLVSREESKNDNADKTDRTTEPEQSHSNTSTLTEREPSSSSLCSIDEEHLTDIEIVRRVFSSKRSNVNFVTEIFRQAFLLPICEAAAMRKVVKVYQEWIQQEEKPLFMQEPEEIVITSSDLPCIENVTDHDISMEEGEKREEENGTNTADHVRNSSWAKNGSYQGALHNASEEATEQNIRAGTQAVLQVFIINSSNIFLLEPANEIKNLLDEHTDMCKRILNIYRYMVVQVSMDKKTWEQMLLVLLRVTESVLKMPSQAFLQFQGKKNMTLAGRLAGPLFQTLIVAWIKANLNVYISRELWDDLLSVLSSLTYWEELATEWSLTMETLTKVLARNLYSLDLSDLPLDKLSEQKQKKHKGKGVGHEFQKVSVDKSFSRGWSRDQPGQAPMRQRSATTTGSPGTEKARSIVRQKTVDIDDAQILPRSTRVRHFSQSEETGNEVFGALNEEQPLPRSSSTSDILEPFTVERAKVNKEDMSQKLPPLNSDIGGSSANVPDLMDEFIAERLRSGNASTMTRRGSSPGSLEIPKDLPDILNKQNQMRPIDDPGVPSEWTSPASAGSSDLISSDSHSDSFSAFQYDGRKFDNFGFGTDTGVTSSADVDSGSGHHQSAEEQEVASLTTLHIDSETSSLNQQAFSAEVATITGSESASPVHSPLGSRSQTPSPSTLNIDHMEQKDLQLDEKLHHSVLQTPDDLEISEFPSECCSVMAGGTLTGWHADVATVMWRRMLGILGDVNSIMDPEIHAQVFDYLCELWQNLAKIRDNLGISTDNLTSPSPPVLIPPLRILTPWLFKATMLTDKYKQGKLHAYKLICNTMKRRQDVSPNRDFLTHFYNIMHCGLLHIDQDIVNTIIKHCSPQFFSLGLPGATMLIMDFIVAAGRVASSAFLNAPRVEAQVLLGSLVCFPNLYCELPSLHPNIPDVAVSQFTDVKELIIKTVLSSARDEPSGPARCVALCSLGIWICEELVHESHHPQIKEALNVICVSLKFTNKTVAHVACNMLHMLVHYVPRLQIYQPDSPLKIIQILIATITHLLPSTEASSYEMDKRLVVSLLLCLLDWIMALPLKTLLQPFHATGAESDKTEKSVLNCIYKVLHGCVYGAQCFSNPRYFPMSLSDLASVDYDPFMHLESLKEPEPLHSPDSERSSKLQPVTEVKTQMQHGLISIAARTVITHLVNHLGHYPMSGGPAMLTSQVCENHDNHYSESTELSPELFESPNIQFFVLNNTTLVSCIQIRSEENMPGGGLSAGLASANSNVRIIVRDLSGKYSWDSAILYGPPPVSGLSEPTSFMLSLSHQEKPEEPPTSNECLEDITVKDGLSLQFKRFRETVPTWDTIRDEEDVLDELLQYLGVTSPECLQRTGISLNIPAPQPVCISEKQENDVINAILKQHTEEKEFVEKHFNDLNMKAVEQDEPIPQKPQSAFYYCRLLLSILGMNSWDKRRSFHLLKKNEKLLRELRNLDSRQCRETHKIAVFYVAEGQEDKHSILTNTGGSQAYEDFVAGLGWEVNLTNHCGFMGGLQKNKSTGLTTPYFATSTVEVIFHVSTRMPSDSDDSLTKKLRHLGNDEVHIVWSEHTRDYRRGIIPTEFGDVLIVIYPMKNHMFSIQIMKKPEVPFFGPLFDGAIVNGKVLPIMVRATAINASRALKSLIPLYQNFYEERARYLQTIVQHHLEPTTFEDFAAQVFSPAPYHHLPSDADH
UniProt P61020: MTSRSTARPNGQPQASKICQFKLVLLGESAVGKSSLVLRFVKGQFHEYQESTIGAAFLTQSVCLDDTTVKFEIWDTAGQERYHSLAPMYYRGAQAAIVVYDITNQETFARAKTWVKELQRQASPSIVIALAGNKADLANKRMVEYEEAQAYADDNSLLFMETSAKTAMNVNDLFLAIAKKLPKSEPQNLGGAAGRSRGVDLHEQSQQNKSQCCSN
UniProt Q969Q5: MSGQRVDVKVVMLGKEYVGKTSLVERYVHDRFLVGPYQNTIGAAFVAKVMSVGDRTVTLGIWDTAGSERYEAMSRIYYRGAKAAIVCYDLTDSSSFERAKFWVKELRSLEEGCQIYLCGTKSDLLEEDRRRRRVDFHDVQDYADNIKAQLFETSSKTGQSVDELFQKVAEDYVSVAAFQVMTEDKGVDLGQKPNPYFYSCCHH
UniProt P61225: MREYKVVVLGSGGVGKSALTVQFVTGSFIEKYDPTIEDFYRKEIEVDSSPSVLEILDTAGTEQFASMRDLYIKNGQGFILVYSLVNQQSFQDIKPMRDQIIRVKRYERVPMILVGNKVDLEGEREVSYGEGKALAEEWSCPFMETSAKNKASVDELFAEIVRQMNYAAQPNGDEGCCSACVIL
UniProt P20340: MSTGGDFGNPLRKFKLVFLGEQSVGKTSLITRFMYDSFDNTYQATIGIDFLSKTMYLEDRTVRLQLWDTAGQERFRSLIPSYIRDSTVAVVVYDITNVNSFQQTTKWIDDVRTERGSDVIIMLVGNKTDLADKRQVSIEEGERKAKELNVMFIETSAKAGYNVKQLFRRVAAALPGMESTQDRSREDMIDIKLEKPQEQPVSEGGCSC
UniProt Q06609, whole entry, looked up: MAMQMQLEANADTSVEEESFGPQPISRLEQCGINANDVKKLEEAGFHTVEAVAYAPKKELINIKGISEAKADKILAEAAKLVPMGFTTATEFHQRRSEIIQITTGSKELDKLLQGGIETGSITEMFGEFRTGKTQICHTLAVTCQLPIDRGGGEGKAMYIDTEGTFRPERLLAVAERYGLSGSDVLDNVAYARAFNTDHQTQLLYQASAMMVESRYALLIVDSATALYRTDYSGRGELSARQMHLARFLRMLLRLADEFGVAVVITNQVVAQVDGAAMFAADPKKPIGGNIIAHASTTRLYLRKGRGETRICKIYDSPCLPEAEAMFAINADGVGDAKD
UniProt P10114: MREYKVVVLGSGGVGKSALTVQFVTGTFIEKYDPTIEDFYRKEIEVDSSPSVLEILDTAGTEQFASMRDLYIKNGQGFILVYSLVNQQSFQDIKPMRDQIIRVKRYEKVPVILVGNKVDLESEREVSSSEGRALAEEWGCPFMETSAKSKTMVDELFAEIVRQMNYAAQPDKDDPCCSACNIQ
UniProt P62491: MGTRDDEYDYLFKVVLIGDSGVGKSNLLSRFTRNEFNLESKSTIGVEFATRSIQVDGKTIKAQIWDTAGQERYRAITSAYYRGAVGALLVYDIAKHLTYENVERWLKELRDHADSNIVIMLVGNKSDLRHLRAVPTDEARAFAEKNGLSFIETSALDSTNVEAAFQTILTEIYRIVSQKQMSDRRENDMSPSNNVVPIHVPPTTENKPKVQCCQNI
UniProt P62834: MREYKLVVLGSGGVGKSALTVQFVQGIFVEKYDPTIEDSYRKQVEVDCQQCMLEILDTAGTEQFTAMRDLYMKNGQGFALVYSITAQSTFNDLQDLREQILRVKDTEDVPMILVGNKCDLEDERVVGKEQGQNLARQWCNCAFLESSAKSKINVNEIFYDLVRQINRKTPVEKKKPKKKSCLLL
UniProt Q9H2T7: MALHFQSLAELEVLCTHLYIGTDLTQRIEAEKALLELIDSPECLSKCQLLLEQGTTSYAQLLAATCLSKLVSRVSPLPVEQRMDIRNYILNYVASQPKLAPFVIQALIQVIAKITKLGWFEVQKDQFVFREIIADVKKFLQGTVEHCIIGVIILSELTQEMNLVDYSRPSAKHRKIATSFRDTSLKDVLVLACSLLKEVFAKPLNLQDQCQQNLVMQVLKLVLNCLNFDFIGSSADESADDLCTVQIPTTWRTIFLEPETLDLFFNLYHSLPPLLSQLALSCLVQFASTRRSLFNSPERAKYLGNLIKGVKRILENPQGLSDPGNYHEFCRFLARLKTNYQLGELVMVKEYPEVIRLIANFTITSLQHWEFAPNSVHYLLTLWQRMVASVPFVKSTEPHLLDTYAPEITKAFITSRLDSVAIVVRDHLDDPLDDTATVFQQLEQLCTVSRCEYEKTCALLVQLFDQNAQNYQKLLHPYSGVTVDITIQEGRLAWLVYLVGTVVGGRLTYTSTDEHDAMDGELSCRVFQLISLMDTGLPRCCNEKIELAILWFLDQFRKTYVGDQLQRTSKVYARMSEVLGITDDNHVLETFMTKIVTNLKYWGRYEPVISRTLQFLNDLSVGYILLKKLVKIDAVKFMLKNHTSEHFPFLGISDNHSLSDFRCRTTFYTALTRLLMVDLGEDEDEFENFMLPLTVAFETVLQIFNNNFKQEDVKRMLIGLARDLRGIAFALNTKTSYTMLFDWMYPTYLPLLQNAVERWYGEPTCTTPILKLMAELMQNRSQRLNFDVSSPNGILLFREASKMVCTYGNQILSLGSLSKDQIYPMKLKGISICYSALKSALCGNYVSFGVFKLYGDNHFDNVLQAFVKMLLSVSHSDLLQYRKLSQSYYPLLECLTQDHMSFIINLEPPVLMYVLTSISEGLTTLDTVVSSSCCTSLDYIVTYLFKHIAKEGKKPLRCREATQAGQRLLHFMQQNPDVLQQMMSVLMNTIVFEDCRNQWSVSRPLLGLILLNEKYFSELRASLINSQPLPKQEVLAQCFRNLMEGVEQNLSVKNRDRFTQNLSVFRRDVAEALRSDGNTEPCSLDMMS

This is one part of the list.

Compound in this experiment: C#Cc1cccc(Nc2ncnc3cc(OCCOC)c(OCCOC)cc23)c1 [erlotinib]
The experiment can be described thus: log2 fold change, soluble protein after heating vs DMSO (PISA); higher = thermal stabilisation; K562 lysate, 10 uM; active = over 0.2 and 3.5 SD of the protein, either way, in both replicates (recomputed). The method in brief:
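The values are log-two fold changes in thermal stability compared with solvent controls and come from duplicates. They were obtained by TMTpro 16plex LC-MS/MS, with channel sums equalised, on the supernatant after 21,000xg for 90 min. That supernatant came from crude K562 extract at 1 mg/mL protein treated with 10 μM compound for 30 min, heated for 3 min across 48°C-58°C, pooled and brought to 0.5% NP-40 at 4°C.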
Take RACGAP1 (UniProt Q9H0H5): the log2 fold change was inactive: 0.032.

Consider RAD1 (UniProt O60671), for which the log2 fold change was inactive: 0.054.

For the target RAC2 (UniProt P15153), the log2 fold change was inactive: 0.009.

For RABEPK (UniProt Q7Z6M1), the log2 fold change was inactive: -0.01.

For RANBP9 (UniProt Q96S59), the log2 fold change is inactive: 0.01.

Turning to RAD51C (UniProt O43502), the log2 fold change was inactive: 0.

On to RABGEF1 isoform 3 (UniProt Q9UJ41), for which the log2 fold change was inactive: -0.032.

In the case of RANBP6 (UniProt O60518), the log2 fold change is inactive: 0.045.

As for RABEP1 (UniProt Q15276), the log2 fold change was inactive: 0.005.

RALGAPA1 isoform 6 (UniProt Q6GYQ0): the log2 fold change is inactive: 0.056.

For the target RABAC1 (UniProt Q9UI14), the log2 fold change was inactive: -0.004.

As for RAB5B (UniProt P61020), the log2 fold change was inactive: 0.019.

For RAB6B (UniProt Q9NRW1), the log2 fold change is inactive: 0.

As to RAB5A (UniProt P20339), the log2 fold change was inactive: -0.003.

As to RAB24 (UniProt Q969Q5), the log2 fold change is inactive: -0.02.

On to PYCR3 (UniProt Q53H96), for which the log2 fold change is inactive: 0.

Regarding RAB10 (UniProt P61026), the log2 fold change is inactive: -0.056.

For the target RAN (UniProt P62826), the log2 fold change was inactive: -0.026.

For the target RAP2B (UniProt P61225), the log2 fold change is inactive: 0.017.

Turning to RAB8B (UniProt Q92930), the log2 fold change is inactive: 0.013.

Consider RAB6A isoform 4 (UniProt P20340), for which the log2 fold change was inactive: -0.001.

Consider RAB20 (UniProt Q9NX57), for which the log2 fold change is inactive: 0.059.

For RAP2C (UniProt Q9Y3L5), the log2 fold change was inactive: -0.056.

Regarding RAP1GAP isoform 4 (UniProt P47736), the log2 fold change is inactive: 0.087.

In the case of RAD51 (UniProt Q06609), the log2 fold change was inactive: 0.013.

For the target RAD23B (UniProt P54727), the log2 fold change is inactive: 0.013.

For RAP2A (UniProt P10114), the log2 fold change is inactive: 0.059.

With RAB11A (UniProt P62491), the log2 fold change is inactive: 0.009.

In the case of QRSL1 (UniProt Q9H0R6), the log2 fold change is inactive: -0.01.

Regarding RAP1A (UniProt P62834), the log2 fold change is inactive: 0.006.

Regarding RAP1B (UniProt P61224), the log2 fold change was inactive: -0.017.

As to RAPGEF2, A0A2R8YGD3, the log2 fold change was inactive: -0.009.

Take RANBP17 (UniProt Q9H2T7): the log2 fold change was inactive: 0.053.
